Results reported in the supplement of paper PMC7666118.
This is one part of the list.

Protein sequences, listed by entry. Tags and fused reporters are not part of them. Lines headed by an entry give the natural chain unless they say otherwise; changes in a name come on top.
UniProt Q8WUJ0: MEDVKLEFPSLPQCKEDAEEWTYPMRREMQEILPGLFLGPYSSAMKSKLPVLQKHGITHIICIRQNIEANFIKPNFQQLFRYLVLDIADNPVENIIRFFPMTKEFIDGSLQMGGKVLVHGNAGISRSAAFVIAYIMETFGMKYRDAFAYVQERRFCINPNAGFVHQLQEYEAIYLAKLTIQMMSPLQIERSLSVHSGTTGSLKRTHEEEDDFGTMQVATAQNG
UniProt Q9BVQ7: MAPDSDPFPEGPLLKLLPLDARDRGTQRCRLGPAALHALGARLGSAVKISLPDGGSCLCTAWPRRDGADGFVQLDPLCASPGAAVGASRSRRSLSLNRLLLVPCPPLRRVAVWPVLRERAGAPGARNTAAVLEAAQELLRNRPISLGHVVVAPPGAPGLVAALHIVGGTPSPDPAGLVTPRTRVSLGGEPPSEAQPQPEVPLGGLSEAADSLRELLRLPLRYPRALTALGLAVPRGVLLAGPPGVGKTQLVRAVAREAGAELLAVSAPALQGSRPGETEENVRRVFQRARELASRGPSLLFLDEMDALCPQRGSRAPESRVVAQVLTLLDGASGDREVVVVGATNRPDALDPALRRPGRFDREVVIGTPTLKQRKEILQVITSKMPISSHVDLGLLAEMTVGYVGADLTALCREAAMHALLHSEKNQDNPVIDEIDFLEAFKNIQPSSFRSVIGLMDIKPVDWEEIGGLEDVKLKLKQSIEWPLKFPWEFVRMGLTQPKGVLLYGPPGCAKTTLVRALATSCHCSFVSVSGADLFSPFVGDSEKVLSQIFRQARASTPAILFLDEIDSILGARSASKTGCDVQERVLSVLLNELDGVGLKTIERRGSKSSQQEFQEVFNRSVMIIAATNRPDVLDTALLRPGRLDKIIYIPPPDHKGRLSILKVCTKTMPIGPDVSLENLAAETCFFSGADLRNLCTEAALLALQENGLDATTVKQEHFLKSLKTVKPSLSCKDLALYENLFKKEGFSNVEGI
UniProt Q92540: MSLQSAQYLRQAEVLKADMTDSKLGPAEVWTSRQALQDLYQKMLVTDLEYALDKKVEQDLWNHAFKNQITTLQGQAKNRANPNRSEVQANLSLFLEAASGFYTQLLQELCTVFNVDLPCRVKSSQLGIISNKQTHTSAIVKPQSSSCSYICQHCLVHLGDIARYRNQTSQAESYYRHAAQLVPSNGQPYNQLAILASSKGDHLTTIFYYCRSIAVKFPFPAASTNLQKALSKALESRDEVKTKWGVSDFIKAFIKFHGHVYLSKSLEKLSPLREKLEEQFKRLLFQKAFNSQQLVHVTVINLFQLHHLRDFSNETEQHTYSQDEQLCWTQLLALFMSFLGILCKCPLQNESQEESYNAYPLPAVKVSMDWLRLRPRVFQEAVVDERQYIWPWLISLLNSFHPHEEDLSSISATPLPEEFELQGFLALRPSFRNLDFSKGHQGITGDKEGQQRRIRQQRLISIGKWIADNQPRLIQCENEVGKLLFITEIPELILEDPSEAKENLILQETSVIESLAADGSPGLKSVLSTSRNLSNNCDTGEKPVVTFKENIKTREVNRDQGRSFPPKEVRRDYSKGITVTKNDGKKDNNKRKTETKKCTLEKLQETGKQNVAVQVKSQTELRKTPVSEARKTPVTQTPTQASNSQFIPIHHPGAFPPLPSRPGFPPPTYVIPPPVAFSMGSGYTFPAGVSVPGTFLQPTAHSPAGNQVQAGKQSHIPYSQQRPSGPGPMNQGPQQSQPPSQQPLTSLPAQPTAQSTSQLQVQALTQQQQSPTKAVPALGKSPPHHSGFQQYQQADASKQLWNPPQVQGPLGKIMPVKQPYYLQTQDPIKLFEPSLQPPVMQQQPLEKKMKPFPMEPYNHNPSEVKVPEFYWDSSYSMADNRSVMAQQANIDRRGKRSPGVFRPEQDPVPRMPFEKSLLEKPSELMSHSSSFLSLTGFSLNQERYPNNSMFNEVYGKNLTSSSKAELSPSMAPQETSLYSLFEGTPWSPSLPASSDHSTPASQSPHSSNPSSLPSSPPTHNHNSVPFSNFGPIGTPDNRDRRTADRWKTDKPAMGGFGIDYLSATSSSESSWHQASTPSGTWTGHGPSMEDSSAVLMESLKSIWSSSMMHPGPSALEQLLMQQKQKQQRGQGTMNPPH
UniProt O95721: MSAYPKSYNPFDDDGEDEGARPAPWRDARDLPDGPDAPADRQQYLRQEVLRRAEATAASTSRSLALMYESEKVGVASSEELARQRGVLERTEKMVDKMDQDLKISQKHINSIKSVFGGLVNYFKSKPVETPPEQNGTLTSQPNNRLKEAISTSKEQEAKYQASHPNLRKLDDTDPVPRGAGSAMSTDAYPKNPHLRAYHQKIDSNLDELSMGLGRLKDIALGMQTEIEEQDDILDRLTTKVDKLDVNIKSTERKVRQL
UniProt Q9NXE4: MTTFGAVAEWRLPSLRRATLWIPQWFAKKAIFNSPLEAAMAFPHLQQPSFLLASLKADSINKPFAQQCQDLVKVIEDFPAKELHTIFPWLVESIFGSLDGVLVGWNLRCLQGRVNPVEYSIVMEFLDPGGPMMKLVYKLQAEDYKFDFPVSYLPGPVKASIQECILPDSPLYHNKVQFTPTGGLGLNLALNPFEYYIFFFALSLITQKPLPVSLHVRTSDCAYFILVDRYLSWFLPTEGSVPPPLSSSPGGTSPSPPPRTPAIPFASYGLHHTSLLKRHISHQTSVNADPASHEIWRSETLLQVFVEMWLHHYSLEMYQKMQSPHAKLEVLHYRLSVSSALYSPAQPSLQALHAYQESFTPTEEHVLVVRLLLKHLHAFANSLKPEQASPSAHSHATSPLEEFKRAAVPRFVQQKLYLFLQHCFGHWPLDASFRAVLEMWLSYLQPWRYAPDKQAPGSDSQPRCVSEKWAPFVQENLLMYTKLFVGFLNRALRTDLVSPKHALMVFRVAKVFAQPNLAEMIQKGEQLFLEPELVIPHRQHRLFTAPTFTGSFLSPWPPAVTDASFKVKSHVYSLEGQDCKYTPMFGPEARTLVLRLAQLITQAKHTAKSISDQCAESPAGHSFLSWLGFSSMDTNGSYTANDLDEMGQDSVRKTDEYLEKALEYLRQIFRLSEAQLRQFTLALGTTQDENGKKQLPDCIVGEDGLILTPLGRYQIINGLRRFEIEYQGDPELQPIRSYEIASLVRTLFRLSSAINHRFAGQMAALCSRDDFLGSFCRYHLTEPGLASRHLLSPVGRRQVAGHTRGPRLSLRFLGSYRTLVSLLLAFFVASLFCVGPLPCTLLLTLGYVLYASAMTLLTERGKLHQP
UniProt P09661: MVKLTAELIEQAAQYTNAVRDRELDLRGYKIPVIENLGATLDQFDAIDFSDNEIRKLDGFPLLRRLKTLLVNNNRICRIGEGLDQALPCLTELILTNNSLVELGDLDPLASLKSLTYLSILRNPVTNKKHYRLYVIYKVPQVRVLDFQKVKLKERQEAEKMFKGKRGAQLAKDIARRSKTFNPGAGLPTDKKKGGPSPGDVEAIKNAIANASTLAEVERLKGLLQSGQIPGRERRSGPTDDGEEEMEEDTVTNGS
UniProt Q11206: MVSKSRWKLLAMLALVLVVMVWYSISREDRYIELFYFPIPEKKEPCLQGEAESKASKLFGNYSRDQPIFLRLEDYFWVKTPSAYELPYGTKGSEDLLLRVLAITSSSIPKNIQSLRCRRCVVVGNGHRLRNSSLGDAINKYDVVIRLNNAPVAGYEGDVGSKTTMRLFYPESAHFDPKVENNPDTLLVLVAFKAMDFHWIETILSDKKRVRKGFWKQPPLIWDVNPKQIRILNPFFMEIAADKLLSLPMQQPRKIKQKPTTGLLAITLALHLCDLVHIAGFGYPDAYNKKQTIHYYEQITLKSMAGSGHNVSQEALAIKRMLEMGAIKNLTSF
UniProt O43815: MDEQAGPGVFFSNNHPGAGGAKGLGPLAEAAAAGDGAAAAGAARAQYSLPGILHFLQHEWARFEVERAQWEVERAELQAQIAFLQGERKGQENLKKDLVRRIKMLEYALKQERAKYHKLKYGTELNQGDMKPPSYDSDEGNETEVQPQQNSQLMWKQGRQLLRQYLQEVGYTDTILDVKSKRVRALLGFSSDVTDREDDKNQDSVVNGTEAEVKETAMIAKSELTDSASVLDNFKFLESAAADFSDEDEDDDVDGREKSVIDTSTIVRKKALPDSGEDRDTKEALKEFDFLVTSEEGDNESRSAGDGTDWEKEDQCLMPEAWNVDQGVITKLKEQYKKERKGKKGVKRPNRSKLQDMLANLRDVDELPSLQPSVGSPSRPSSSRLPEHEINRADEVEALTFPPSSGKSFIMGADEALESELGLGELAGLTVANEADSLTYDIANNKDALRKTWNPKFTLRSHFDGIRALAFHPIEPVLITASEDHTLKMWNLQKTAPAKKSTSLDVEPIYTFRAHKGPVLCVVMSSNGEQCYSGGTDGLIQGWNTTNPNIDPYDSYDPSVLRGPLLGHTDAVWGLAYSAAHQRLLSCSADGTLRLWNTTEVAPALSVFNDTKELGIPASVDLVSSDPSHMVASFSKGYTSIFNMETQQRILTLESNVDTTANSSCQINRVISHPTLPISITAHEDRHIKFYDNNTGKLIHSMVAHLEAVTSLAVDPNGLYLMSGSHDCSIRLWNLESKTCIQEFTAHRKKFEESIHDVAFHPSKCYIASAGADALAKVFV
UniProt P09012, whole entry: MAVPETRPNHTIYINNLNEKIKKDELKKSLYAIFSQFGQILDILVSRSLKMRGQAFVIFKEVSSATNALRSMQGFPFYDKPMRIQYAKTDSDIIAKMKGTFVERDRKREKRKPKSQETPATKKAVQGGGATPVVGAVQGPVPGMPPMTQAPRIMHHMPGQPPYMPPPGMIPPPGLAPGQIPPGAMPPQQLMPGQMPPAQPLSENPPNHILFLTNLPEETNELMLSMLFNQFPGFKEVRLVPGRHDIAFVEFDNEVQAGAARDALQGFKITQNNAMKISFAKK
UniProt P42226: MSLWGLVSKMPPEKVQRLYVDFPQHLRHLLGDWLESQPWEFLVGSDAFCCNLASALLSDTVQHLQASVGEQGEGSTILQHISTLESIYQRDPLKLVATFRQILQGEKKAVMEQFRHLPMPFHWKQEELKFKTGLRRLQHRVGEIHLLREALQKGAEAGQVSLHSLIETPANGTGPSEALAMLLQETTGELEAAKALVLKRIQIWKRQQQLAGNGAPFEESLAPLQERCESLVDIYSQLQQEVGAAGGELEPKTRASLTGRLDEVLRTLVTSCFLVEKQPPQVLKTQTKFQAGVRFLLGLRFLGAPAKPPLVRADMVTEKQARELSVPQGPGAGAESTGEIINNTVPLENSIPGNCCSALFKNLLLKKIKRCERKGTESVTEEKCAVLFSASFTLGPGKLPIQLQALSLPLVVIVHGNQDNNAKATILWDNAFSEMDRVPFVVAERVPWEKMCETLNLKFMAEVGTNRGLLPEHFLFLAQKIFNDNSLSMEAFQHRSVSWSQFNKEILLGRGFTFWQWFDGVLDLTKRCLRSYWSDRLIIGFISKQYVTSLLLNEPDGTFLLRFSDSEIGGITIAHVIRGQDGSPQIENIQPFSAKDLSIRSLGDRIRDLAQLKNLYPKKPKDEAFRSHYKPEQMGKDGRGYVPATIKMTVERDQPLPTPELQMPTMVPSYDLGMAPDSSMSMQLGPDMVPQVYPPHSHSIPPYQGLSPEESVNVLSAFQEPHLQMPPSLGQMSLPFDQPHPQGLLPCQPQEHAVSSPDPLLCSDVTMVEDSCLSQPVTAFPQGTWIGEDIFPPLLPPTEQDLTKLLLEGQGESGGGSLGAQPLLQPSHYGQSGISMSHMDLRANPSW

Compound: COc1ccc(Cn2ccc3ccc(C(=O)NO)cc32)cc1
Assay: dose-dependent thermal stabilisation call (2D-TPP, DLPTP, 10% FDR) (binary (1 = stabilised)); higher = stabilised by the compound
Details: system: HL-60 intact cells; concentration range 0.04-10 µM

Target | dose-dependent thermal stabilisation call
STYX (UniProt Q8WUJ0) | inactive: 0
SPATA5L1 (UniProt Q9BVQ7) | inactive: 0
SMG7 (UniProt Q92540) | inactive: 0
SNAP29 (UniProt O95721) | inactive: 0
SMPD4 (UniProt Q9NXE4) | inactive: 0
SNRPA1 (UniProt P09661) | active: 1
ST3GAL4 (UniProt Q11206) | inactive: 0
STRN (UniProt O43815) | inactive: 0
SNRPA (UniProt P09012) | inactive: 0
STAT6 (UniProt P42226) | inactive: 0
